Experimental data published in paper PMC2749851.
No constants are given. Whether binding was seen depends on the method and setting.

Target: GST-E1A-C* (adenovirus) (UniProt P03254)
Experiment: pull-down; GST fusion proteins charged on glutathione-agarose beads, incubated with purified H6-CtBP2 or H6-RR-CtBP2 (~0.1 μg) in 200 μl of 25 mM Tris-HCl pH 7.5, 0.25 M NaCl, 0.5% Triton X-100, 0.5 mM DTT for 1 h at 4°C; Western blot with the CtBP2 antibody; both purified

With H6-CtBP2 (from UniProt P56545 1-445) as the substance, how does the binding read?
The binding was “no binding (tested: ~0.1 μg in 200 μl)”.
